This is an account of results in publication PMC8986754.

Chains of the proteins cited; added tags and fusions are not shown. Residues count along the entry.
UniProt O76061, residues 25-302: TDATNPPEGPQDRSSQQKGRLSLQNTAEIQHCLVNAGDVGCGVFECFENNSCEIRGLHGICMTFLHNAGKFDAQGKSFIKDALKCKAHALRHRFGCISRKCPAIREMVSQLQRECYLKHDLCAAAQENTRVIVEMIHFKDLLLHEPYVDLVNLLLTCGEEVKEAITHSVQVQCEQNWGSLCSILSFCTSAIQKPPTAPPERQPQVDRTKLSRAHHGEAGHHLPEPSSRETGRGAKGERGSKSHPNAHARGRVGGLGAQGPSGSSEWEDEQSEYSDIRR
UniProt P05107, residues 23-769: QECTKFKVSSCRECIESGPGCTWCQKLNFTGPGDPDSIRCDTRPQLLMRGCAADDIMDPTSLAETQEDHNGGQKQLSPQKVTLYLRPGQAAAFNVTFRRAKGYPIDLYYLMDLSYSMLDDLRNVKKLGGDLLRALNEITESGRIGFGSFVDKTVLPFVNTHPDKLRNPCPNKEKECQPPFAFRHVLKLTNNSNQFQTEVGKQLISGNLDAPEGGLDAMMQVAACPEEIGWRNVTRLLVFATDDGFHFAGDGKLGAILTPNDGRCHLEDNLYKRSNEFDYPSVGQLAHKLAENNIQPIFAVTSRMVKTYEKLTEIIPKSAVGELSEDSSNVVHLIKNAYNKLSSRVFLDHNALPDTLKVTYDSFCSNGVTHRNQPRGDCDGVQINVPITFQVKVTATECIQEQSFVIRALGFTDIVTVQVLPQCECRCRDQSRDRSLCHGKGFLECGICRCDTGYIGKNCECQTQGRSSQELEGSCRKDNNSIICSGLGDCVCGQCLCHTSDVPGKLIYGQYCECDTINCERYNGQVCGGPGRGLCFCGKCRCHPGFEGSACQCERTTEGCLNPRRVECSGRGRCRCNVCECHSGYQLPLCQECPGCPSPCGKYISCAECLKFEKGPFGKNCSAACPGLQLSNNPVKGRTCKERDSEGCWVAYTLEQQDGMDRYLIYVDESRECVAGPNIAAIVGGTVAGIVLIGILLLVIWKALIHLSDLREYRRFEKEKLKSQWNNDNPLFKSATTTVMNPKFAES

These are yes or no findings as the source states them, for the method shown. Binding seen in cells or lysates may run through a third protein. Some binding calls cover weakened binding; strength is not graded here.

For the test, the target named is Stanniocalcin-2 (human (endogenous in human nasopharyngeal carcinoma cell lines 6-10B / CNE1)) (UniProt O76061). The test can be described thus: co-IP; Pierce Crosslink Immunoprecipitation Kit; cells lysed in RIPA lysis buffer (25 mM Tris-HCl, pH 7.4, 0.15 M NaCl, 0.001 M EDTA, 1% NP-40, 5% glycerol) with protease inhibitors; lysate pre-cleared, immunoprecipitated with anti-STC2 antibody overnight at 4 °C; western blot.

With “integrin β2 (from UniProt P05107 23-769)”, the binding result is “binds”.
